# Measured values taken from publication PMC5349851.
# The list shows a part of the results, in another mix than the full data. At the low end of the ranking the order means little. The list shows a part of the results.
# Assays:
# Assay in all cases: SELEX-seq (CSI, HT-SELEX, round 3)
# Settings in all cases: SELEX-seq: 1x PBS (10 mM phosphate, 137 mM NaCl, 2.7 mM KCl) pH 7.6, 2.5 mM DTT, 50 ng/ul poly dI-dC, 0.1% BSA, 50 nM biotinylated bZIP (1:3 with partner for …); high values mean tight binding; double strand, one strand shown
# CEBPG + CEBPG = system: T1, CEBPG + CEBPG
# T1 sequence 1: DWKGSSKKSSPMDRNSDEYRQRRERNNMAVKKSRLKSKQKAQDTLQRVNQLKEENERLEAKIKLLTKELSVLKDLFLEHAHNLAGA
# T1 sequence 2: T1 sequence 1
# ATF4 + ATF4 = system: ATF4 + ATF4
# DBP + DBP = system: T2, DBP + DBP
# T2 sequence 1: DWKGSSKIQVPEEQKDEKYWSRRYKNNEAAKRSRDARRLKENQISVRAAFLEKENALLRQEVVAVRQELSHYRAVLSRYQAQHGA
# T2 sequence 2: T2 sequence 1
# BATF + ATF3 = system: T3, BATF + ATF3
# T3 sequence 1: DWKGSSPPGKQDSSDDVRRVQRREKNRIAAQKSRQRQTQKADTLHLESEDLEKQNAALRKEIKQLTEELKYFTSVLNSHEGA
# T3 sequence 2: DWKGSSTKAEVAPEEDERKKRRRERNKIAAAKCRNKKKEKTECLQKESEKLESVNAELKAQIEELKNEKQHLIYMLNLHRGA
# FOSL1 + CEBPG = system: T4, FOSL1 + CEBPG
# T4 sequence 1: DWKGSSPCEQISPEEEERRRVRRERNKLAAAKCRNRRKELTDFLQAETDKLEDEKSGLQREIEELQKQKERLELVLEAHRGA
# T4 sequence 2: T1 sequence 1
# BATF3 + BATF3 = system: T5, BATF3 + BATF3
# T5 sequence 1: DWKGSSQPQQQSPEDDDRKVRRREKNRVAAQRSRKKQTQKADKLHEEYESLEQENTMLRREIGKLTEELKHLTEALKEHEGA
# T5 sequence 2: T5 sequence 1
# XBP1 + XBP1 = system: T6, XBP1 + XBP1
# T6 sequence 1: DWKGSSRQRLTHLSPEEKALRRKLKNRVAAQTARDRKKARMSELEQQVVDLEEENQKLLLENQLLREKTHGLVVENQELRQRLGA
# T6 sequence 2: T6 sequence 1
# JUNB + ATF3 = system: T7, JUNB + ATF3
# T7 sequence 1: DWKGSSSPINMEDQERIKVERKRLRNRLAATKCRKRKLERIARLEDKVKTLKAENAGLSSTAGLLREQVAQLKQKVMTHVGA
# T7 sequence 2: T3 sequence 2
# JUNB + ATF4 = system: JUNB + ATF4
# JUNB + ATF2 = system: T8, JUNB + ATF2
# T8 sequence 1: T7 sequence 1
# T8 sequence 2: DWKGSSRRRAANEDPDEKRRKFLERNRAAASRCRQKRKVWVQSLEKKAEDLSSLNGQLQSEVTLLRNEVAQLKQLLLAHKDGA
# FOS + JUN = system: FOS + JUN
# FOS + BATF3 = system: FOS + BATF3
# FOS + ATF2 = system: FOS + ATF2
# JUN + CEBPG = system: JUN + CEBPG
# CEBPA + CEBPA = system: CEBPA + CEBPA
# BATF + CEBPA = system: BATF + CEBPA
# ATF5 + BATF3 = system: T9, ATF5 + BATF3
# T9 sequence 1: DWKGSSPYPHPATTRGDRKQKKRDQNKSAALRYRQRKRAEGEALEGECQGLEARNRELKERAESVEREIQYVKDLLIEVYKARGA
# T9 sequence 2: T5 sequence 1
# FOSL1 + BATF3 = system: T10, FOSL1 + BATF3
# T10 sequence 1: T4 sequence 1
# T10 sequence 2: T5 sequence 1
# BATF3 + CEBPA = system: BATF3 + CEBPA
# ATF5 + JUN = system: ATF5 + JUN
sequence,measurement,setting,value
ATGACGTCAT,binding signal (relative CSI intensity (max = 1)),CEBPG + CEBPG,0.00362
same,binding signal (relative CSI intensity (max = 1)),ATF4 + ATF4,1
same,binding signal (relative CSI intensity (max = 1)),DBP + DBP,0.0564
same,binding signal (relative CSI intensity (max = 1)),BATF + ATF3,0.113
ATGATGCAAT,binding signal (relative CSI intensity (max = 1)),FOSL1 + CEBPG,0.498
same,binding signal (relative CSI intensity (max = 1)),ATF4 + ATF4,4.8e-06
same,binding signal (relative CSI intensity (max = 1)),BATF3 + BATF3,0.000211
same,binding signal (relative CSI intensity (max = 1)),XBP1 + XBP1,-0.000348
same,binding signal (relative CSI intensity (max = 1)),JUNB + ATF3,0.000977
same,binding signal (relative CSI intensity (max = 1)),JUNB + ATF4,0.000395
same,binding signal (relative CSI intensity (max = 1)),JUNB + ATF2,9.64e-05
same,binding signal (relative CSI intensity (max = 1)),BATF + ATF3,-0.0407
same,binding signal (relative CSI intensity (max = 1)),FOS + JUN,0.000186
same,binding signal (relative CSI intensity (max = 1)),FOS + BATF3,0.000576
same,binding signal (relative CSI intensity (max = 1)),FOS + ATF2,0.000177
CCTGACGTCA,binding signal (relative CSI intensity (max = 1)),JUN + CEBPG,-0.0146
same,binding signal (relative CSI intensity (max = 1)),FOSL1 + CEBPG,0.000338
same,binding signal (relative CSI intensity (max = 1)),CEBPG + CEBPG,3.15e-05
same,binding signal (relative CSI intensity (max = 1)),CEBPA + CEBPA,0.000206
same,binding signal (relative CSI intensity (max = 1)),XBP1 + XBP1,0.000538
same,binding signal (relative CSI intensity (max = 1)),DBP + DBP,-0.000117
same,binding signal (relative CSI intensity (max = 1)),BATF + CEBPA,0.000182
same,binding signal (relative CSI intensity (max = 1)),FOS + JUN,0.000618
same,binding signal (relative CSI intensity (max = 1)),FOS + ATF2,0.00727
same,binding signal (relative CSI intensity (max = 1)),ATF5 + BATF3,0.0107
ATGACGCAAT,binding signal (relative CSI intensity (max = 1)),ATF4 + ATF4,5.92e-05
same,binding signal (relative CSI intensity (max = 1)),BATF3 + BATF3,0.00125
same,binding signal (relative CSI intensity (max = 1)),XBP1 + XBP1,0.00105
same,binding signal (relative CSI intensity (max = 1)),JUNB + ATF2,0.00356
same,binding signal (relative CSI intensity (max = 1)),FOSL1 + BATF3,-0.000268
same,binding signal (relative CSI intensity (max = 1)),FOS + JUN,0.000574
ATGACGTAAT,binding signal (relative CSI intensity (max = 1)),BATF3 + BATF3,0.0127
same,binding signal (relative CSI intensity (max = 1)),BATF + ATF3,0.0836
same,binding signal (relative CSI intensity (max = 1)),FOSL1 + BATF3,0.0576
ATGACGGAAT,binding signal (relative CSI intensity (max = 1)),BATF3 + CEBPA,0.000193
same,binding signal (relative CSI intensity (max = 1)),FOSL1 + CEBPG,0.00045
same,binding signal (relative CSI intensity (max = 1)),CEBPG + CEBPG,0.000168
same,binding signal (relative CSI intensity (max = 1)),CEBPA + CEBPA,0.000693
same,binding signal (relative CSI intensity (max = 1)),ATF4 + ATF4,1.84e-05
same,binding signal (relative CSI intensity (max = 1)),BATF3 + BATF3,0.000176
same,binding signal (relative CSI intensity (max = 1)),XBP1 + XBP1,-3.67e-05
same,binding signal (relative CSI intensity (max = 1)),DBP + DBP,0.000591
same,binding signal (relative CSI intensity (max = 1)),JUNB + ATF4,0.000252
same,binding signal (relative CSI intensity (max = 1)),JUNB + ATF2,0.000434
same,binding signal (relative CSI intensity (max = 1)),BATF + CEBPA,2.16e-05
same,binding signal (relative CSI intensity (max = 1)),FOSL1 + BATF3,-0.000268
same,binding signal (relative CSI intensity (max = 1)),FOS + JUN,-4.41e-05
same,binding signal (relative CSI intensity (max = 1)),FOS + BATF3,0.000818
same,binding signal (relative CSI intensity (max = 1)),FOS + ATF2,0.000465
same,binding signal (relative CSI intensity (max = 1)),ATF5 + JUN,-0.0134
same,binding signal (relative CSI intensity (max = 1)),ATF5 + BATF3,0.000102

# Laid out differently: entries from further up.
sequence	measurement	setting	value
CCTGACGTCA	binding signal (relative CSI intensity (max = 1))	FOS + JUN	0.000618
same	binding signal (relative CSI intensity (max = 1))	FOS + ATF2	0.00727
same	binding signal (relative CSI intensity (max = 1))	ATF5 + BATF3	0.0107
